SMILES strings stand for the structures. This is one part of the list. Results with a measured potency or affinity are listed apart.

The subject of this experiment is Pseudomonas aeruginosa. The settings on record: Concentration 20 uM; ASSAY_TEST Inhibition of Bacterial Growth; detection method Absorption (OD600); MEDIA CAMHB; plate type 384well; NBS; CORNING #3640; time 18 hr.
The Inhibition is the drop in the measured response relative to a control, in per cent. Consider `O=S(=O)(c1ccc(Cl)cc1)N1CCN(C(=S)NCc2ccco2)CC1`, for which the Inhibition came out at 6.62%. For `Cc1ccc2[nH]c3c(NCCN(C)C)ncnc3c2c1`, the Inhibition is listed as 12.5%. `CC1=NN(c2nc3ccccc3s2)C(=O)C1Cc1cccc2ccccc12` (centres undefined): the Inhibition is given as 9.22%. For `CN1CCN(c2nccc3[nH]c(-c4cccc(F)c4)cc23)CC1`, the Inhibition worked out at 11.09%. In the case of `O=C(NCCN1CCCC1)c1cc(NCCCCN2CCC(F)(F)CC2)nc2ccc(Cl)cc12` it was 19.88%; in that of `COc1cncc(-c2cncc(N3CCN(c4ccncc4)CC3)n2)c1`, 17.14%; in that of `O=C(NCc1ccco1)N1CCN(Cc2ccc(Cl)s2)CC1`, 3.22%. As for `COc1cccc(OC)c1C(=O)Nc1ccc(Cl)c(-c2nc3ccccc3s2)c1`, the figure is 1.66%; as for `CC1CC1C(=O)NC1CCN(CC2(c3ccccc3)CCCCC2)CC1` (centres undefined), 11.29%. On to `COc1cc(-c2cc(-c3ccc(S(C)(=O)=O)cc3)cnc2N)ccc1O`, for which the Inhibition is on record as 6.78%.

For the compound `CNC1C(OC2C(OC3C(O)C(O)C(NC(=N)N)C(O)C3NC(=N)N)OC(C)C2(O)C=O)OC(CO)C(O)C1O.CNC1C(OC2C(OC3C(O)C(O)C(NC(=N)N)C(O)C3NC(=N)N)OC(C)C2(O)C=O)OC(CO)C(O)C1O.O=S(=O)(O)O.O=S(=O)(O)O.O=S(=O)(O)O` (centres undefined), the Inhibition was found to be 2.72%. As for `CCN(CC)S(=O)(=O)c1ccc(Cl)c(C(=O)Nc2ccc3nc(C)sc3c2)c1`, the Inhibition is 0.72%. In the case of `O=C1[C@@H](Oc2ccccc2)[C@@H](c2ccc(Cl)cc2)N1CCn1cnc2c(NCc3ccccc3)ncnc21`, the Inhibition was -2.26%. Consider `N#Cc1nc(-c2ccccc2F)oc1NCCc1ccccc1`, for which the Inhibition turned out to be 8.81%. On to `Cc1ccc2nc(C)c(-c3ccn(Cc4ccccc4)n3)n2c1`, for which the Inhibition came out at 14.57%. As to `CN(C)c1cc(NC(=O)Nc2ccccc2)c2ccccc2n1`, the Inhibition came out at 15.22%.

With `Cc1cc(NC(=O)c2ccc(S(=O)(=O)N(Cc3ccccc3)C(C)C)cc2)no1`, the Inhibition is on record as 5.24%. Take `CC1=Nc2ccc(Cl)cc2C(c2ccccc2)N1CCNC(=O)CN(C)C` (centres undefined): the Inhibition amounted to 16.48%. On to `O=C1N(Cc2cc3ccccc3s2)CC2CN(Cc3ccccc3)CCN12` (centres undefined), for which the Inhibition is given as 3.81%.

For `Cl.Cn1ccnc1CNCCS(=O)(=O)c1cccc(Nc2ccc(-c3cccc(F)c3)cn2)c1`, the Inhibition was 7.62%. In the case of `Clc1ccc(Cl)c(CO[C@H]2CCCC[C@@H]2n2ccnc2)c1` it was 20.5%; in that of `Cc1cc(C)n(-c2ccc(NC(=O)C3CCN(Cc4cnc(C)s4)CC3)cc2)n1`, 8.59%; in that of `c1ccc(-c2[nH]c3ccccc3c2C(c2ccccn2)N2CCCC2)cc1` (centres undefined), 11.79%. As for `COc1ccc(-c2cncc3ccc(C(=O)NCCCn4ccnc4)nc23)cc1`, the figure is 5.81%. On to `CS(=O)(=O)Cc1nc2ccccc2oc1=O`, for which the Inhibition turned out to be 11.13%. Turning to `OCCc1ccc(Nc2nccc(-c3nnc4ccccn34)n2)cc1`, the Inhibition is recorded as 16.52%. Consider `COc1ccc(Cn2cnc3c(-c4ccco4)nc(Cl)nc32)cc1`, for which the Inhibition stood at 15.02%. In the case of `Cl.O=C(Nc1ccc(N2CCNCC2)nc1)c1oc(-c2ccccc2)nc1C(F)(F)F` it was -17.92%; in that of `CCC(Sc1nc2ccccc2o1)C(=O)Nc1nnc(C)s1` (centres undefined), -5.63%. As to `N=C(N)c1ccc(-c2cc(-c3ccccc3)on2)cc1`, the Inhibition is on record as 13.36%. On to `O=C(NCc1cc(Cl)cc(Cl)c1)c1c(C(F)(F)F)nc2ccccn12`, for which the Inhibition was 15.53%. As for `Cc1cccc(NC(=O)c2cc(S(=O)(=O)N(C)c3ccc(F)cc3)ccc2Cl)n1`, the Inhibition is 11.78%. `C[C@H](c1ccc2c(c1)CCCC2)N(C)c1ncc2c(N)nc(N)nc2n1`: the Inhibition is 13.44%.

In the case of `Cc1ccccc1CN1CCC(O)(c2ccc(Cl)c(C(F)(F)F)c2)CC1`, the Inhibition came to 9.76%. As for `Cl.NCCCC(N)(C(=O)O)C(F)F.O` (centres undefined) [EFLORNITHINE HYDROCHLORIDE], the figure is 7.21%; as for `Cc1ccc(C(=O)Nc2ccc(S(=O)(=O)O)c3cc(S(=O)(=O)O)cc(S(=O)(=O)O)c23)cc1NC(=O)c1cccc(NC(=O)Nc2cccc(C(=O)Nc3cc(C(=O)Nc4ccc(S(=O)(=O)O)c5cc(S(=O)(=O)O)cc(S(=O)(=O)O)c45)ccc3C)c2)c1` [SURAMIN], 15.45%. As for `Cc1cc(C(=O)Nc2cnn(Cc3ccc(Cl)cc3Cl)c2)no1`, the Inhibition amounted to 7.05%. `COc1ccccc1CNC(=O)c1cc(C2CC2)nc2c1cnn2C(C)C`: the Inhibition is 5.5%. `CNC(=O)c1nn(C)c2c1C(C)(C)Cc1cnc(Nc3ccc(N4CCN(C)CC4)cc3)nc1-2` [MILCICLIB]: the Inhibition is 5.97%.

For the compound `CCOc1ccccc1C(=O)Nc1cccc(-c2nc3ncccn3c2C)c1`, the Inhibition turned out to be 8.14%. Turning to `COc1cc(NC(=O)Cc2nn(C)c(=O)c3ccccc23)ccc1Cl`, the Inhibition is 14.21%. With `CCCCc1ccc(NC(=O)Nc2ccc(O[C@H]3CCCC[C@@H]3N(C)c3ccccc3)c(F)c2)cc1`, the Inhibition was determined as 10.53%. As to `CC(C)C(NC(=O)Cc1cccc2ccccc12)C(=O)Nc1cccc(C#N)c1` (centres undefined), the Inhibition was determined as 10.91%. As to `CC(C)(C)OC(=O)N1CCC(Cn2nc(-c3cnc4ccccc4c3)c3c(N)ncnc32)CC1`, the Inhibition was 13.86%. As for `O=C(NC1CC1)c1ccc(N2CCC(Cc3ccccc3)CC2)nc1`, the Inhibition worked out at 20.01%. In the case of `COc1ccc(C2(C(=O)Nc3ccc(Br)cc3)CCCC2)cc1` it was 22.51%. On to `O=C(NCc1ccoc1)N1CCN(Cc2ccc3c(c2)OCO3)CC1`, for which the Inhibition worked out at 8.46%.

With `Cc1nn2c(O)c3c(nc2c1-c1ccc(F)cc1)CCCC3`, the Inhibition came to 14.05%. Regarding `Clc1ccc(CCNc2cc(-c3ccccc3)nc3ncnn23)cc1`, the Inhibition is on record as 7.99%. Regarding `N#Cc1nc(-c2ccccc2)oc1S(=O)(=O)c1ccc(Cl)cc1`, the Inhibition was determined as 0.82%. Turning to `Clc1ccc(-n2cc(COc3ccnc4ccccc34)nn2)cc1`, the Inhibition is 16.23%.

Regarding `Cl.c1ccc(Oc2ccc(-c3cc(N4CCNCC4)[nH]n3)cc2)cc1`, the Inhibition is on record as -3.7%. With `CNC(=O)CNc1nc(-c2ccccn2)nc2scc(-c3ccccc3)c12`, the Inhibition is listed as 15.13%. For the compound `COc1cccc(-c2cc3c(Nc4cccnc4)nccc3[nH]2)c1`, the Inhibition was 7.93%. Regarding `O=C(NC1CCCCC1)N1CCN(Cc2ccc3c(c2)OCO3)CC1`, the Inhibition came to 11.6%. As for `COc1ccc(OC(C)C(=O)Nc2ccc(Cl)cc2C)cc1` (centres undefined), the figure is 9.27%. As for `CN1CCC(NCc2cccc(-c3ccc(S(=O)(=O)NCc4ccccc4)cc3)c2)CC1`, the Inhibition was determined as 6.61%.

Consider `Cc1nn(C(=O)Nc2cccc(C(F)(F)F)c2)c(C)c1Sc1ncccn1`, for which the Inhibition was 11.04%. Take `CN(C(=O)c1cc2c(-c3cncnc3)cccc2[nH]1)c1ccccc1`: the Inhibition is listed as 15.38%. In the case of `CN(C)CCNC(=O)N1CCCN(c2ncnc3cc(-c4ccccc4)sc23)CC1` it was 14.99%.

As to `Nc1ncc(Br)cc1-c1nc2cc(Cl)cnc2[nH]1`, the Inhibition is listed as 16.08%. Regarding `Cc1cc(C)cc(COc2ccc3c(C)c(CCC(=O)O)c(=O)oc3c2C)c1`, the Inhibition was found to be 6.69%. As to `FC(F)(F)c1ccc(N(c2cccnc2)C2CCN(c3ccc(C(F)(F)F)cn3)CC2)cc1`, the Inhibition stood at 11.66%. In the case of `Cl.Cl.Cl.NS(=O)(=O)c1cncc(-c2ccc3nccc(-c4cn[nH]c4)c3n2)c1`, the Inhibition was determined as 6.96%. Consider `O=C(NC1=NCCS1)c1sc2cc(F)ccc2c1Cl`, for which the Inhibition was 4.99%. In the case of `Cn1ncc2c(N3CCOCC3)nc(NCCc3c[nH]c4ccccc34)nc21` [TDR79432], the Inhibition is recorded as 4.99%. On to `O=C(NCCN1CCCC1)c1cc(NCCN2CCOCC2)nc2ccc(Cl)cc12`, for which the Inhibition was found to be 15.64%. Regarding `O=C(Cn1ccnc1[N+](=O)[O-])NCc1ccccc1` [BENZNIDAZOLE], the Inhibition came to 15.47%. For the compound `O=C(C1CCN(c2nnc(-n3cccc3)s2)CC1)N1CCC(Cc2ccccc2)CC1`, the Inhibition was found to be 16.73%. For the compound `O=C(Nc1c(O)cccc1-c1nc2c(C(=O)O)cccc2o1)c1cc(-c2ccccc2)on1`, the Inhibition is listed as -13.4%. `CCOc1ccc(OCC(=O)Nc2cc(C)cc(C)c2)cc1`: the Inhibition was determined as 9.52%. On to `CC1(COc2ccc(N3CCC(Oc4ccc(OC(F)(F)F)cc4)CC3)cc2)Cn2cc([N+](=O)[O-])nc2O1` (centres undefined), for which the Inhibition is on record as 14.8%. As for `CC(C(=O)Nc1ccc2oc(-c3ccncc3)nc2c1)c1ccccc1` (centres undefined), the figure is 8.01%.

Regarding `O=C(Nc1cccc(Cl)c1)c1cnc(N2CCN(c3ccncc3)CC2)c(Cl)c1`, the Inhibition was found to be 16.66%.

As to `CCN(CC)CCCCCCNc1cc(OC)cc2c(C)ccnc12.Cc1ccc(S(=O)(=O)O)cc1`, the Inhibition is reported as 13.61%.

As to `C[C@H](C(N)=O)N1CCCC[C@H]1c1ccc(OCc2cccc(F)c2)cc1`, the Inhibition turned out to be 17.55%. Consider `CN1CCC(c2cc(-c3ccncc3)c(-c3ccc(F)cc3)[nH]2)CC1`, for which the Inhibition is given as 4.09%. Consider `CC(C)(C)CN1C(=O)C(c2ccccc2)(c2ccccc2)N=C1N`, for which the Inhibition is given as 15.99%.

Take `CS(=O)(=O)c1cccc(-c2cnc3[nH]cc(-c4ccc(CCC(=O)O)cc4)c3c2)c1`: the Inhibition was 8.64%. As to `Cc1cc(OCC(=O)NCc2ccccc2)c2cc(Br)ccc2n1`, the Inhibition is 10.66%. Consider `CCCS(=O)(=O)N1CCC(CO)(Cc2ccccc2C(F)(F)F)CC1`, for which the Inhibition turned out to be 0.83%. For `Nc1ncnc2c1c(Cc1cccc3ccccc13)nn2CC1CCNCC1`, the Inhibition was -4.47%. Regarding `C[C@H](C(N)=O)N1CCCC[C@@H]1c1ccc(OCc2cccc(F)c2)cc1`, the Inhibition turned out to be 6.37%. Take `Cc1ncc(-c2ccnc(Nc3ccc(S(C)(=O)=O)cc3)n2)n1C(C)C` [AZD-5438]: the Inhibition was 10.65%. `Cc1cc(Cl)ccc1NC(=O)CCc1ccc(S(=O)(=O)NCC(C)C)cc1`: the Inhibition was determined as 8.89%. As to `Cl.NCC(c1cccs1)S(=O)(=O)c1ccccc1` (centres undefined), the Inhibition is reported as -1.2%. Consider `Cc1cc(C)n2nc(C(=O)Nc3cc(C(F)(F)F)ccc3N3CCOCC3)nc2n1`, for which the Inhibition worked out at 14.83%. In the case of `O=C(NCCc1ccn(-c2ccccc2)n1)C1CCCCC1` it was 1.15%.

On to `CN1CCN(c2nccc3nc(-c4ccc(F)c(F)c4)[nH]c23)CC1`, for which the Inhibition was determined as 20.48%.

These data come from ChEMBL document CHEMBL4513149, “CO-ADD screening of MMV (CH) - MMV compounds” (2021).
